In paper PMC8440614:
Results are given in words; binding and its absence hold for the method and conditions named. In cells and extracts the contact can be indirect. Some entries that bind do so weakly or less than the wild type.

Protein sequences, listed by entry. Tags and fused reporters are not part of them.
UniProt O75626: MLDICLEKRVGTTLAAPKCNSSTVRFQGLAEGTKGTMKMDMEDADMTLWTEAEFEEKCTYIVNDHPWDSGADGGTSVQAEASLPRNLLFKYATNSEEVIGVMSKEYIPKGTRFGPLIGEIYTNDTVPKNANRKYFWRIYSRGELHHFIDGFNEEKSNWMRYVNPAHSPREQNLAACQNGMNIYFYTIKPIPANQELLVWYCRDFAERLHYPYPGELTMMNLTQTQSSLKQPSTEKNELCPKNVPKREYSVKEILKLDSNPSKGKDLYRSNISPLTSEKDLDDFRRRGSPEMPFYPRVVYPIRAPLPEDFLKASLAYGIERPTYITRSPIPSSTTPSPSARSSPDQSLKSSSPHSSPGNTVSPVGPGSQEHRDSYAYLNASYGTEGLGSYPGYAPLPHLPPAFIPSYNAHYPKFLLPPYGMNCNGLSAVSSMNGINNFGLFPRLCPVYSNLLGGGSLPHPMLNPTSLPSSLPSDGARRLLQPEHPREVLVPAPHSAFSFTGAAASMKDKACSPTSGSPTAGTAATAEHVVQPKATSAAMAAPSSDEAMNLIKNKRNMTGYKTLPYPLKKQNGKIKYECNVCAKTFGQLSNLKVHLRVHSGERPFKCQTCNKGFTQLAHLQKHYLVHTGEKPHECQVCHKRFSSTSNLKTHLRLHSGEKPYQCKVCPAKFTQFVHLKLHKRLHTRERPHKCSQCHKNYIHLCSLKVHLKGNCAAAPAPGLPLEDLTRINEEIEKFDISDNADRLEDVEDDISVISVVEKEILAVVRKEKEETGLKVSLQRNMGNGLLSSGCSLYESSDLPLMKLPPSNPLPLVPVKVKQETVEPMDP

T1: Absent in melanoma 2 (AIM2) (human (endogenous in tonsil CD19+ B cells)) (UniProt O14862)
T1 sequence: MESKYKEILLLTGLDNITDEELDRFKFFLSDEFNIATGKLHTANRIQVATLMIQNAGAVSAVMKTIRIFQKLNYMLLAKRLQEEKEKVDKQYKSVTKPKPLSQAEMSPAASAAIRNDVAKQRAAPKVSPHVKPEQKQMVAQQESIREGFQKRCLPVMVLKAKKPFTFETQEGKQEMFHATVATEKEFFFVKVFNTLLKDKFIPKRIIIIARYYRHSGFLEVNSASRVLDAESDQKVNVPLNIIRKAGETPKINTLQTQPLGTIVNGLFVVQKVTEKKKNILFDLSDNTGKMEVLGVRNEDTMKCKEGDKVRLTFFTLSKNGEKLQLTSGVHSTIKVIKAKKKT


Columns and labels:
[1] = biological target: T1, Absent in melanoma 2 (AIM2) (human (endogenous in tonsil CD19+ B cells)); assay: co-IP; endogenous proteins; total proteins of CD19+ B cells from human tonsils; detection by western blotting
[2] = substrate: B lymphocyte-induced maturation protein 1 (Blimp-1) (human (endogenous in tonsil CD19+ B cells)) (UniProt O75626); assay: as above

| binding [1] | binding [2] | Molecule |
| --- | --- | --- |
| binds | – | B lymphocyte-induced maturation protein 1 (Blimp-1) (from UniProt O75626 1-825) |
| – | binds | Absent in melanoma 2 (AIM2) (protein, UniProt O14862 1-343) MESKYKEILLLTGLDNITDEELDRFKFFLSDEFNIATGKLHTANRIQVATLMIQNAGAVSAVMKTIRIFQKLNYMLLAKRLQEEKEKVDKQYKSVTKPKPLSQAEMSPAASAAIRNDVAKQRAAPKVSPHVKPEQKQMVAQQESIREGFQKRCLPVMVLKAKKPFTFETQEGKQEMFHATVATEKEFFFVKVFNTLLKDKFIPKRIIIIARYYRHSGFLEVNSASRVLDAESDQKVNVPLNIIRKAGETPKINTLQTQPLGTIVNGLFVVQKVTEKKKNILFDLSDNTGKMEVLGVRNEDTMKCKEGDKVRLTFFTLSKNGEKLQLTSGVHSTIKVIKAKKKT |
